Test results reported in paper PMC4600896.
No constants are given. Whether binding was seen depends on the method and setting. Binding seen in cells or lysates may run through a third protein. Some results given as binding are weak or reduced against the parent protein; the word gives no strength.

Protein sequences, listed by entry. Tags and fused reporters are not part of them. Lines headed by an entry give the natural chain unless they say otherwise; changes in a name come on top. Chains listed by the source or under a name are the forms on record and can include a tag or linker.
GFP-xDnmt1 (Q6GQH0, form named): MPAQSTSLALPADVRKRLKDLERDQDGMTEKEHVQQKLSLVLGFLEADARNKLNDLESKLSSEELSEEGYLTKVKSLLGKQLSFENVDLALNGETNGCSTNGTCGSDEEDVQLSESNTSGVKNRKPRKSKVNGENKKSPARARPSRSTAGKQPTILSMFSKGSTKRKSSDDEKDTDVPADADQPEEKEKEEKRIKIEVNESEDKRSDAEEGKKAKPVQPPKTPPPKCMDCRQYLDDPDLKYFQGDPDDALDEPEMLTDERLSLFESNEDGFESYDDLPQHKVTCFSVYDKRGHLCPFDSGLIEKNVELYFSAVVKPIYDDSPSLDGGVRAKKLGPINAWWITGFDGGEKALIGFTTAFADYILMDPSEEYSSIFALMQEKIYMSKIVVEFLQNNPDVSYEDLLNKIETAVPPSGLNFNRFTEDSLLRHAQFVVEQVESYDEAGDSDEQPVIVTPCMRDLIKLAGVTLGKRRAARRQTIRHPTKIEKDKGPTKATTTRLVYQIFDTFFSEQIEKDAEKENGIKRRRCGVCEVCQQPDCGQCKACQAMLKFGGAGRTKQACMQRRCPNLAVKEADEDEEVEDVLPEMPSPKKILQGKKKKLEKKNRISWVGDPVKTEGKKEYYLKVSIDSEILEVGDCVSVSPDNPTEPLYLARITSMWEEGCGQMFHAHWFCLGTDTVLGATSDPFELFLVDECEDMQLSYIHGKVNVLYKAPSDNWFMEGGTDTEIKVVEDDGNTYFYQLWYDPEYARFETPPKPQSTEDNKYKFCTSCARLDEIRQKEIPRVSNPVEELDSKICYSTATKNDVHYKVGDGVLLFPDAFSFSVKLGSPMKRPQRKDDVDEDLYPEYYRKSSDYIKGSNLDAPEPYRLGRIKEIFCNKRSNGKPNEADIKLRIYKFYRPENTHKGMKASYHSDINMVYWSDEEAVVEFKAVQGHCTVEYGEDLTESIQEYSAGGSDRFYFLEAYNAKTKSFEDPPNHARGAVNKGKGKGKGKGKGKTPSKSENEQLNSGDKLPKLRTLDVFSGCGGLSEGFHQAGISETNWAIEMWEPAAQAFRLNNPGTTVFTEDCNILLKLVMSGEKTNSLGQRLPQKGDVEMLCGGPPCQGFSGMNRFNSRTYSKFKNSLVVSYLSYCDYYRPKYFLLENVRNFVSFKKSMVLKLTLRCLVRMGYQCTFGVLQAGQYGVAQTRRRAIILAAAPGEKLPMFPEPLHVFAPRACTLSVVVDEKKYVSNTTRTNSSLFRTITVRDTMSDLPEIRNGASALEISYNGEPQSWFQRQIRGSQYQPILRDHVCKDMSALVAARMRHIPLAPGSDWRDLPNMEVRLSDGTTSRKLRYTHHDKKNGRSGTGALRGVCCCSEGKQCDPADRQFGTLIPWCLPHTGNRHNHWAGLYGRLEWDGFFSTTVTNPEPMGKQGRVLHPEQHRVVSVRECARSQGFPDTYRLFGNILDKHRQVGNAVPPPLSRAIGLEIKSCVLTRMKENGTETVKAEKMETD

Target: T1, T7-xLsh (Xenopus laevis) (UniProt Q4V835)
T1 sequence: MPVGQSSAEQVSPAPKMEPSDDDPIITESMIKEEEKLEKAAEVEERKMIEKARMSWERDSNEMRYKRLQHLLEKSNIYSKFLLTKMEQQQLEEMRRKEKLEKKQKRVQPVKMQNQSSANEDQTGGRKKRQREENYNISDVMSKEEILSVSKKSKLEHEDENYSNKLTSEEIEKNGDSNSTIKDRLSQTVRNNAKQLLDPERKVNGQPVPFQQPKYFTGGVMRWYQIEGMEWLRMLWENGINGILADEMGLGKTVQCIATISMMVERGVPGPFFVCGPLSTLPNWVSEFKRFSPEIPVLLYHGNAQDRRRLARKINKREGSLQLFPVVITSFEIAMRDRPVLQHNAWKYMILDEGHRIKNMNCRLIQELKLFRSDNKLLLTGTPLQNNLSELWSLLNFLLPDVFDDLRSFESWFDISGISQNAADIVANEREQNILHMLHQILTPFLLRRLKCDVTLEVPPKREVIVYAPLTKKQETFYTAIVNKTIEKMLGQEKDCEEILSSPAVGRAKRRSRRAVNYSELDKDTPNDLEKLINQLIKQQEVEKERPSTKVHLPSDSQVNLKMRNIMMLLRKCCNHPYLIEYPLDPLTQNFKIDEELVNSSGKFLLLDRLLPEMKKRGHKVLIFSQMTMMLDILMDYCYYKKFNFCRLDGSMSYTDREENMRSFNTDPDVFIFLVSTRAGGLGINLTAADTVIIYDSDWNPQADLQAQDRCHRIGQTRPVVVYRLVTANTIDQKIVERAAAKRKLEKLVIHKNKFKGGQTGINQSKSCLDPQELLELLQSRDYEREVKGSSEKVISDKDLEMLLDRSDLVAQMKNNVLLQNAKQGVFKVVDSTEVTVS
Assay: co-IP; GFP-xDnmt1 and T7-xLsh coexpressed in 293T cells, nuclear extracts, immunoprecipitated under high salt conditions (250 mM NaCl), reciprocal

binding: binds
Substance: GFP-xDnmt1 (from UniProt Q6GQH0 1-1490)
